Values quoted from earlier work as cited in patent US12440476B2, “Agents that target telomerase reverse transcriptase (TERT) for treating cancer and sensitizing cancer cells to genotoxic therapy” (Northwestern University, priority 2022, dated 2025).
The name of at least one read-out is uncertain.

Tested on: Saos-2 cells
Settings: cited from earlier work

For C=C1C(=O)[C@](C)(C(=O)OC)[C@H](CCc2cn(Cc3ccc(F)cc3F)nn2)O[C@@H]1C [NU-1], the LD50 is given as “undetectable”.
